The target of experiment [1] is 猴CD137胞外段 (SEQ ID No.20) (monkey). The experiment in a line: ELISA, monkey CD137 extracellular domain coated, goat anti-human HRP.
Experiment [2] has as its target 猴PD-L1胞外段 (SEQ ID No.23) (monkey). The experiment in a line: ELISA, monkey PD-L1 extracellular domain coated, goat anti-human HRP.
Experiment [3] deals with 人PD-L1全长 (SEQ ID No.22)，表达于CHO-K1细胞 (human) (UniProt Q9NZQ7). Kind of experiment: stated in the discussion of the CD137/NFκB reporter assay with CHO-K1/hPD-L1 cells.

Amino acid sequences for entries named in this document (tags omitted). A change or cut given only in a name is not applied to a line headed by its entry.
UniProt Q9NZQ7: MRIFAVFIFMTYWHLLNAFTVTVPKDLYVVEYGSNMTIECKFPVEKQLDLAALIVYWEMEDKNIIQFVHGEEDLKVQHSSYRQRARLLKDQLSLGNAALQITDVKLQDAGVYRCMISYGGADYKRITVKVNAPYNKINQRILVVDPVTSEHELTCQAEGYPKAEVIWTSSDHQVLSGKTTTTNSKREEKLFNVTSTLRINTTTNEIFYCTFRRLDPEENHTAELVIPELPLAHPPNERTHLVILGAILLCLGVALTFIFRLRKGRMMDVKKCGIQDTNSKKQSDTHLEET

These are yes or no findings as the source states them, for the method shown. Some entries that bind do so weakly or less than the wild type.

B1: 亲本抗体Anti-CD137 (中国专利申请CN 201911105611.1中的抗人CD137单克隆抗体Hanke10F4) (antibody, V domains shown)
VH: QVQLQESGPGLVKPSETLSLTCTVSGSSLTSYGVHWVRQPPGKGLEGLGVIWPGGSTNYNSALMSRVTISKDNSKSQVSLKMSSLTAADTAVYYCARVTGTWYFDVWGQGTTVTVSS
VL: DIQMTQSPSSLSASLGDRVTISCSASQGISNYLNWYQQKPDGTVKLLIYYTSTLHSGVPSRFSGSGSGTDYTLTISSLQPEDIATYYCQQYSKLPWTFGGGTKLEIK
For the molecule B1, in experiment [1], the binding entry is recorded as “binds”.

B2: 亲本抗体Anti-PD-L1 (中国专利申请CN 201910174374.8的抗人PD-L1单克隆抗体) (antibody, V domains shown)
VH: DVQLVESGGGLVQPGGSLRLSCTVSGIDLSSYDMTWVRQAPGKGLEYIGYISYVSRTYYADSVKGRFTISKDTSKNTVYLQMNSLRAEDTAVYYCARDRPDGAATNLWGQGTLVTVSS
VL: DIQMTQSPSTLSASVGDRVTITCQSSQNVYSNNRLSWYQQKPGKAPKLLIYWTSFLASGVPSRFSGSGSGTEFTLTISSLQPDDFATYYCAGGYSGNLYTFGQGTKLEIKR
For B2, the binding entry in experiment [2] and in experiment [3] was “binds” each time.

The values are drawn from patent CN115677858A.
